# Results taken from the supplement of paper PMC9135407.
# Where “and” joins values, the source holds several entries; their conditions need not be identical. Equal values may be shown once. Where a name gives a salt, the structure may show the parent alone. ± gives the standard deviation of the averaged measurements. The list shows a part of the results. Plates or batches differ in their baseline, so values are only roughly comparable.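 Assay uses culture-activated primary human stellate myofibroblasts; lipid droplet recovery indicates inactivation. Measured: proportion of Hoechst-counted cells over a plate-specific Bodipy cutoff, duplicate wells, DMSO and nortriptyline as per-plate negative and positive controls. A hit scores, control-normalized, above the plate's top-tenth-percentile nortriptyline wells or ranks among its three best wells. Final well concentrations not reported.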
# Test system: primary human hepatic stellate cells (donor 1)
# Assay: percent Bodipy-positive cells; higher = more lipid droplet accumulation
# Details: 48 h
# [1] = library stock concentration: 3.33 mM
# [2] = library stock concentration: 10 mM
# [3] = library stock concentration: 1 mM
# [4] = library stock concentration: 2 mM
smiles,measurement,setting,value
CN(C)CCc1ccc(O)cc1 [Hordenine],percent Bodipy-positive cells,[1],10 ± 2.3%
same,percent Bodipy-positive cells,[2],15.5 ± 7.5%
CC[C@@H]1C=CC=CC[C@H](C)[C@@H](O)[C@@H](C)C(=O)[C@H](C)[C@@H](O)[C@H](C)C(=O)[C@H](C)[C@@H](O)[C@H](C)C=CC(=O)O[C@H]2[C@@H](C)[C@@H](CC1)O[C@@]1(CC[C@@H](C)[C@@H](C[C@H](C)O)O1)[C@@H]2C,percent Bodipy-positive cells,[2],13.5 ± 4.6%
CCOC(=O)C1(c2ccccc2)CCN(CCC(C#N)(c2ccccc2)c2ccccc2)CC1,percent Bodipy-positive cells,[2],28.5 ± 7.8%
NC1=NC(=O)C(c2ccccc2)O1 (centres undefined) [Pemoline],percent Bodipy-positive cells,[2],10.7 ± 1.8%
CC(=O)[C@H]1CC[C@H]2[C@@H]3CC[C@H]4C[C@](C)(O)CC[C@]4(C)[C@H]3CC[C@]12C [Ganaxolone],percent Bodipy-positive cells,[2],30.5% and 9.33%
Cc1sc2ccccc2c1CC1=NCCN1 [Benazoline oxalate],percent Bodipy-positive cells,[2],76.9 ± 1.2%
CCCCCCC(C)(C)c1cc(OC)c2c(c1)OC(C)(C)[C@@H]1CC=C(C)C[C@@H]21,percent Bodipy-positive cells,[3],7.7 ± 1.7%
C[C@@H]1O[C@@H](O[C@H]2C[C@@H](O)[C@]3(CO)[C@H]4[C@H](O)C[C@]5(C)[C@@H](C6=CC(=O)OC6)CC[C@]5(O)[C@@H]4CC[C@]3(O)C2)[C@H](O)[C@H](O)[C@H]1O [Ouabain],percent Bodipy-positive cells,[2],98.7 ± 1.2%
C[C@]12CCC3C(CC[C@]4(O)C[C@@H](O)CC[C@]34C=O)[C@@]1(O)CCC2C1=CC(=O)OC1 (some centres undefined) [Strophanthidin],percent Bodipy-positive cells,[2],90.8 ± 2%
"NCC(CC(=O)O)c1ccc(Cl)cc1 (racemic) [Baclofen (R,S)]",percent Bodipy-positive cells,,24.1 ± 7.7%
COc1cc(C(=O)OC2CC3CCC(C2)N3C)ccc1O (centres undefined) [Fillalbin],percent Bodipy-positive cells,,10.8 ± 0.56%
N[C@@H]1C[C@H]1c1ccccc1 [Tranylcypromine hydrochloride],percent Bodipy-positive cells,,36.6 ± 7%
same,percent Bodipy-positive cells,[2],23.4% and 14.7%
N[C@@H]1C[C@H]1c1ccccc1 [Tranylcypromine (2-PCPA) HCl],percent Bodipy-positive cells,[1],6.04 ± 5%
same,percent Bodipy-positive cells,[2],29.5 ± 9.9%
COc1ccc2c(c[n+](C)c3c4cc5c(cc4ccc23)OCO5)c1OC.Cl [Chelerythrine chloride],percent Bodipy-positive cells,[4],99.519 ± 0.037%
O=C(NC(COc1ccc2[nH]c(=O)[nH]c2c1)c1ccccc1)c1cccn(Cc2ccc(F)c(F)c2)c1=O (centres undefined),percent Bodipy-positive cells,library stock concentration: 80 uM,22.3 ± 12%
same,percent Bodipy-positive cells,library stock concentration: 400 uM,9.4 ± 2%
same,percent Bodipy-positive cells,[4],11.9 ± 7.1%
same,percent Bodipy-positive cells,[2],12.9 ± 0.23%
c1cc2cc(N3CCNCC3)ccc2cn1 [6-piperazin-1-yl-Isoquinoline (hydrochloride)],percent Bodipy-positive cells,[3],10.9 ± 4.4%
O[C@H]1[C@H](O)[C@@H](O)CN2CC[C@H](O)[C@H]12 [Castanospermine],percent Bodipy-positive cells,[2],7.49 ± 0.67%
same,percent Bodipy-positive cells,library stock concentration: 26.4 mM,23.3 ± 0.87%
[O-][n+]1ccccc1[S-].[O-][n+]1ccccc1[S-].[Zn+2] [Pyrithione zinc],percent Bodipy-positive cells,library stock concentration: 6.3 mM,78.4 ± 17%
same,percent Bodipy-positive cells,[2],32.1 ± 1.4%
CO[C@H]1CC[C@@H](O[C@H]2C[C@H]([C@]3(C)CC[C@]4(C[C@H](O)[C@@H](C)[C@@H]([C@@H](C)/C=C(\C)C(=O)[C@H](C)C[C@H](C)C(=O)O)O4)O3)O[C@]3(O[C@@H]([C@H]4O[C@@](O)(CO)[C@H](C)C[C@@H]4C)C[C@@H]3C)[C@@H]2C)O[C@@H]1C [Nanchangmycin],percent Bodipy-positive cells,[1],94.8 ± 2.4%
same,percent Bodipy-positive cells,[2],98.6 ± 1.9%
CC1=C2C[C@H]3[C@@H](CC=C4C[C@@H](O)CC[C@@]43C)[C@@H]2CC[C@]12O[C@@H]1C[C@H](C)CN[C@H]1[C@H]2C [Cyclopamine],percent Bodipy-positive cells,library stock concentration: 12.1 mM,31.2 ± 3%
CCCCC/C=C\C/C=C\C/C=C\C/C=C\CCCC(=O)N[C@@H](CO)C(=O)O [N-Arachidonoyl-L-Serine],percent Bodipy-positive cells,[3],8.73 ± 2.5%
CC(C)NCC(O)c1ccccc1Cl (centres undefined) [Clorprenaline HCl],percent Bodipy-positive cells,[1],12.6 ± 5.2%
same,percent Bodipy-positive cells,[2],37.6 ± 15%
Br.Br.N=C(NCc1ccc(Cl)cc1)SCCCc1c[nH]cn1 [Clobenpropit dihydrobromide],percent Bodipy-positive cells,[2],88.2 ± 1.2%
S=C=Nc1cccc(C2(N3CCCCC3)CCCCC2)c1 [Metaphit],percent Bodipy-positive cells,[2],99 ± 1.5%
CC[C@H]1CN2CC[C@H]1C[C@H]2[C@H](O)c1ccnc2ccc(OC)cc12 [Hydroquinine hydrobromide hydrate],percent Bodipy-positive cells,,34.4 ± 3.4%
FC(F)(F)c1cccc(C2=CCN(CCc3ccc4ccccc4c3)CC2)c1 [Xaliproden hydrochloride],percent Bodipy-positive cells,[2],26.2 ± 6.3%
C=CCN1CC[C@]23CCCC[C@H]2[C@H]1Cc1ccc(O)cc13 [Levallorphan tartrate],percent Bodipy-positive cells,library stock concentration: 7.1 mM,21.2 ± 4.6%
same,percent Bodipy-positive cells,[2],80 ± 6%
O=c1ccc2[nH]cc(C3=CCNCC3)c2[nH]1,percent Bodipy-positive cells,[2],9.97% and 8.03%
CCCCCC=CCC=CCC=CCC=CCCCC(=O)NCC(O)CC(=O)O (centres undefined) [N-Arachidonoyl-3-hydroxy-.gamma.-Aminobutyric Acid],percent Bodipy-positive cells,[3],16.4 ± 5.9%
CCCN1CC[C@@H]2c3cc(O)ccc3CC[C@@H]21 (racemic) [cis(+/-)-8-OH-PBZI hydrobromide],percent Bodipy-positive cells,[2],43.1 ± 1.1%
O=C(O)/C=C/CO [trans-4-Hydroxycrotonic acid],percent Bodipy-positive cells,[2],7.06 ± 0.58%
CC(=O)Nc1cc([As](=O)(O)O)ccc1O [Acetarsol],percent Bodipy-positive cells,library stock concentration: 7.3 mM,12.3 ± 0.73%
same,percent Bodipy-positive cells,[2],17.2 ± 8.2%
Cc1cc2c(C(C)C)c(O)c(O)c(C=O)c2c(O)c1-c1c(C)cc2c(C(C)C)c(O)c(O)c(C=O)c2c1O,percent Bodipy-positive cells,[1],5.68 ± 2%
same,percent Bodipy-positive cells,[2],84.2 ± 6.4%
Cc1cc2c(C(C)C)c(O)c(O)c(C=O)c2c(O)c1-c1c(C)cc2c(C(C)C)c(O)c(O)c(C=O)c2c1O [Gossypol],percent Bodipy-positive cells,,5.23 ± 1.1%
same,percent Bodipy-positive cells,[1],6.237 ± 0.046%
same,percent Bodipy-positive cells,[2],76.9% and 83%
C/C=C(\C)C(=O)O[C@H]1C[C@@H](OC(C)=O)[C@@]2(C(=O)OC)CO[C@H]3[C@@H](O)[C@@](C)([C@]45O[C@@]4(C)[C@H]4C[C@@H]5O[C@@H]5OC=C[C@@]54O)[C@H]4[C@]1(CO[C@]4(O)C(=O)OC)[C@@H]32 [Azadirachtin],percent Bodipy-positive cells,[2],46.9 ± 11%
CC(C(=O)OC1CC2CCC(C1)N2C)c1ccc(Br)cc1.O=C(O)/C=C\C(=O)O (centres undefined) [PG-9 maleate],percent Bodipy-positive cells,[2],58.8 ± 2.1%
CC(=O)[O][Hg][c]1ccccc1 [Phenylmercuric acetate],percent Bodipy-positive cells,library stock concentration: 5.9 mM,82 ± 13%
same,percent Bodipy-positive cells,[2],92.1 ± 3%
O=c1[nH]c2ccccc2n1C1CCN(CCCC(c2ccc(F)cc2)c2ccc(F)cc2)CC1 [Pimozide],percent Bodipy-positive cells,,39.7 ± 1.7%
same,percent Bodipy-positive cells,[2],33.1 ± 6.5%
C#CCN(C)[C@H](C)Cc1ccccc1 [Selegiline hydrochloride],percent Bodipy-positive cells,,18.8 ± 0.56%
same,percent Bodipy-positive cells,library stock concentration: 8.9 mM,11.5 ± 4.6%
"C#CCN(C)[C@H](C)Cc1ccccc1 [Benzeneethanamine, N,Alpha-dimethyl-N-2-propynyl-(R)- [CAS]]",percent Bodipy-positive cells,[2],7.33 ± 3.1%
C#CCN(C)[C@H](C)Cc1ccccc1 [Selegiline],percent Bodipy-positive cells,library stock concentration: 10.7 mM,8.55 ± 1.9%

# Exported with tabs: entries from further up
smiles	measurement	setting	value
N[C@@H]1C[C@H]1c1ccccc1 [Tranylcypromine hydrochloride]	percent Bodipy-positive cells		36.6 ± 7%
same	percent Bodipy-positive cells	[2]	23.4% and 14.7%
N[C@@H]1C[C@H]1c1ccccc1 [Tranylcypromine (2-PCPA) HCl]	percent Bodipy-positive cells	[1]	6.04 ± 5%
same	percent Bodipy-positive cells	[2]	29.5 ± 9.9%
COc1ccc2c(c[n+](C)c3c4cc5c(cc4ccc23)OCO5)c1OC.Cl [Chelerythrine chloride]	percent Bodipy-positive cells	[4]	99.519 ± 0.037%
O=C(NC(COc1ccc2[nH]c(=O)[nH]c2c1)c1ccccc1)c1cccn(Cc2ccc(F)c(F)c2)c1=O (centres undefined)	percent Bodipy-positive cells	library stock concentration: 80 uM	22.3 ± 12%
same	percent Bodipy-positive cells	library stock concentration: 400 uM	9.4 ± 2%
same	percent Bodipy-positive cells	[4]	11.9 ± 7.1%
same	percent Bodipy-positive cells	[2]	12.9 ± 0.23%
c1cc2cc(N3CCNCC3)ccc2cn1 [6-piperazin-1-yl-Isoquinoline (hydrochloride)]	percent Bodipy-positive cells	[3]	10.9 ± 4.4%
O[C@H]1[C@H](O)[C@@H](O)CN2CC[C@H](O)[C@H]12 [Castanospermine]	percent Bodipy-positive cells	[2]	7.49 ± 0.67%
same	percent Bodipy-positive cells	library stock concentration: 26.4 mM	23.3 ± 0.87%
[O-][n+]1ccccc1[S-].[O-][n+]1ccccc1[S-].[Zn+2] [Pyrithione zinc]	percent Bodipy-positive cells	library stock concentration: 6.3 mM	78.4 ± 17%

# Two records picked at random from the list so far, as already listed:
smiles,measurement,setting,value
Cc1cc2c(C(C)C)c(O)c(O)c(C=O)c2c(O)c1-c1c(C)cc2c(C(C)C)c(O)c(O)c(C=O)c2c1O,percent Bodipy-positive cells,[2],84.2 ± 6.4%
c1cc2cc(N3CCNCC3)ccc2cn1 [6-piperazin-1-yl-Isoquinoline (hydrochloride)],percent Bodipy-positive cells,[3],10.9 ± 4.4%
